We go through twelve molecules from PMC12804701.

Amino acid sequences for entries named in this document (tags omitted). A change or cut given only in a name is not applied to a line headed by its entry. Residues count along the entry.
UniProt P10591: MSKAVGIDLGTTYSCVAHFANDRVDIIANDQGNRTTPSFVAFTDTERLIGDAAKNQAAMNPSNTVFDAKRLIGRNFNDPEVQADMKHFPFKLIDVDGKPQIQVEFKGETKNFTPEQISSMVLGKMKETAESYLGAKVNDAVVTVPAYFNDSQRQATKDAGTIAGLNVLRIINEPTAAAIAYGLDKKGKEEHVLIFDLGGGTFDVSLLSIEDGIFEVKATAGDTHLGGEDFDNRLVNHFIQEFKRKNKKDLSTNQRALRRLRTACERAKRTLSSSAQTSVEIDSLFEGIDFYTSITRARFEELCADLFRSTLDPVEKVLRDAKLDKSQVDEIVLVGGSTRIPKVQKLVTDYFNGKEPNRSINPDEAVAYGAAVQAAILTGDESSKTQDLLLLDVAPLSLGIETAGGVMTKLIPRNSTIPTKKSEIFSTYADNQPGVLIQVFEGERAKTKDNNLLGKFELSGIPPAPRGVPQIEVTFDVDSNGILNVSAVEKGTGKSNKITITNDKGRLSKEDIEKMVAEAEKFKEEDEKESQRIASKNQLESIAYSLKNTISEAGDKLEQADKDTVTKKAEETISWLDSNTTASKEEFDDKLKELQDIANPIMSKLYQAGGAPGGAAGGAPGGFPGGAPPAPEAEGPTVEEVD
UniProt P19882, residues 26-572: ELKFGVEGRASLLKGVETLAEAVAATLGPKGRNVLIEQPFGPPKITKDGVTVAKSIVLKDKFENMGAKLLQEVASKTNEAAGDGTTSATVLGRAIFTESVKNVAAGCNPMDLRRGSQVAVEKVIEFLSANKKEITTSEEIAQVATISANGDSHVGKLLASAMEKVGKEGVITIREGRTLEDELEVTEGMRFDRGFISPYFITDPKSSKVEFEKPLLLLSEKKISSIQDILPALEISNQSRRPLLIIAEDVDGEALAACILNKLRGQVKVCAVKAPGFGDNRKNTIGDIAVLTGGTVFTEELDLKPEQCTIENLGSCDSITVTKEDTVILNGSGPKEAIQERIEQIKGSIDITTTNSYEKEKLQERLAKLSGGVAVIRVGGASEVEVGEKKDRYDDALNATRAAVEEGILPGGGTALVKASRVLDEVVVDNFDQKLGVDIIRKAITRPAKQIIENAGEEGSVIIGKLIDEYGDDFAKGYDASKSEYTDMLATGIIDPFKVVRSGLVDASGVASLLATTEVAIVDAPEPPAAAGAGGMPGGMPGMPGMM
UniProt P16474, residues 43-682: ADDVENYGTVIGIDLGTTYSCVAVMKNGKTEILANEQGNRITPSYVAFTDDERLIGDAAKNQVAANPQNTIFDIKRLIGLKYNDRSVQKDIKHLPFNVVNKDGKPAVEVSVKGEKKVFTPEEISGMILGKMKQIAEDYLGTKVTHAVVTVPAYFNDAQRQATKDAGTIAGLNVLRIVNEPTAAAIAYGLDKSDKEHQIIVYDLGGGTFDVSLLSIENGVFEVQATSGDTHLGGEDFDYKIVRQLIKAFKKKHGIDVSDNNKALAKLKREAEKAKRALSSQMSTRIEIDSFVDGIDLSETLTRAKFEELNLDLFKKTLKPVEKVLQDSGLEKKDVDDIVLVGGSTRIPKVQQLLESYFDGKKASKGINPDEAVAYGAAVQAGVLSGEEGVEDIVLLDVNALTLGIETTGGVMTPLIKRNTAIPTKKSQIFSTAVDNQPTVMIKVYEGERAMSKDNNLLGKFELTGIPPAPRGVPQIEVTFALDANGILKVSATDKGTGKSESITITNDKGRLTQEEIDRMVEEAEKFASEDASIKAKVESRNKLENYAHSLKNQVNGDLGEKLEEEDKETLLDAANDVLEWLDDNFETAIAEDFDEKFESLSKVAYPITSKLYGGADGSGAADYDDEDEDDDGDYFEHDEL
UniProt P04147: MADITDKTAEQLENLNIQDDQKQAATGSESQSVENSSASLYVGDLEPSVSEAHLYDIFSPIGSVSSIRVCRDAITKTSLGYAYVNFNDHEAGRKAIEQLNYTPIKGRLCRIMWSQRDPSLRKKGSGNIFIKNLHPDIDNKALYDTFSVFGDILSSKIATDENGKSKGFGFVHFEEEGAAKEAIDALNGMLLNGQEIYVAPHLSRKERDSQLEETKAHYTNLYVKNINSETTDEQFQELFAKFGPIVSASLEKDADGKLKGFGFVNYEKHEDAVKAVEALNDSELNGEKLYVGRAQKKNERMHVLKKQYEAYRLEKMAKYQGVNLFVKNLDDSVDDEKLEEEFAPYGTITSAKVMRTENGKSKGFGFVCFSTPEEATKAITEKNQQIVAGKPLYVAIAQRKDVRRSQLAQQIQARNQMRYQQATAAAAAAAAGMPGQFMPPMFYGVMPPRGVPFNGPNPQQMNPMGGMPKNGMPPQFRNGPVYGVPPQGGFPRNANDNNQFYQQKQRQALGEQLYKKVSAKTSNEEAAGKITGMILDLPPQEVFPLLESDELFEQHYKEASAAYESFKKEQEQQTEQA
UniProt P11484: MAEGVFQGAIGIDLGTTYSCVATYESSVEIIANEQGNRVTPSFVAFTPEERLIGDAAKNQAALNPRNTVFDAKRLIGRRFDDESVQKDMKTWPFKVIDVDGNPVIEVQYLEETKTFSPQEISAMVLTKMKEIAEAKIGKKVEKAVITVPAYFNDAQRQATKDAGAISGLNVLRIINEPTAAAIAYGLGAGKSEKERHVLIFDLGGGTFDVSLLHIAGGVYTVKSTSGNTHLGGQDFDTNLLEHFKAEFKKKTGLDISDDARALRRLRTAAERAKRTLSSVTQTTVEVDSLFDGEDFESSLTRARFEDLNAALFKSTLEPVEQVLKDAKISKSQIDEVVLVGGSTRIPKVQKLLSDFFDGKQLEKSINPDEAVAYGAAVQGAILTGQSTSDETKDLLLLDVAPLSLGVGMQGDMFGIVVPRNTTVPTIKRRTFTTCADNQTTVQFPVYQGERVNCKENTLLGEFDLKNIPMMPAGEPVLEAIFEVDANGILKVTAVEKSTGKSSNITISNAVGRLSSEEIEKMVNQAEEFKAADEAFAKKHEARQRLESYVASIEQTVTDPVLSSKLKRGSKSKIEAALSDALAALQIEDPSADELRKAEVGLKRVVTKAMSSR
UniProt P0CS90, residues 24-654: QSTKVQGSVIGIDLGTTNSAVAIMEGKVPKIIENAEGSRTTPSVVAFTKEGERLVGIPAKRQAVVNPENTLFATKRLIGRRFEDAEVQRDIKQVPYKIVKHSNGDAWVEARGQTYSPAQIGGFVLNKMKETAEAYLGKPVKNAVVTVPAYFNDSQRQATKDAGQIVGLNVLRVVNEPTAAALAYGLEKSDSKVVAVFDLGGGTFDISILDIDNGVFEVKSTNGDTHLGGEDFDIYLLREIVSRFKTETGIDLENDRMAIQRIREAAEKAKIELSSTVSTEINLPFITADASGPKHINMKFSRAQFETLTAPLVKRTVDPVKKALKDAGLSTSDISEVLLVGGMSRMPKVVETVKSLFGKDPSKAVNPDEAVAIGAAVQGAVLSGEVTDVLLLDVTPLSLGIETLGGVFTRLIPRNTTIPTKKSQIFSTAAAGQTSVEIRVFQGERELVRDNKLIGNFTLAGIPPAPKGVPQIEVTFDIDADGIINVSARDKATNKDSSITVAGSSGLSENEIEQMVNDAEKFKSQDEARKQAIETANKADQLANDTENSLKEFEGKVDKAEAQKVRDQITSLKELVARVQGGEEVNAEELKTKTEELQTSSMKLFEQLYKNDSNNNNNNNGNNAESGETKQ
UniProt P25491: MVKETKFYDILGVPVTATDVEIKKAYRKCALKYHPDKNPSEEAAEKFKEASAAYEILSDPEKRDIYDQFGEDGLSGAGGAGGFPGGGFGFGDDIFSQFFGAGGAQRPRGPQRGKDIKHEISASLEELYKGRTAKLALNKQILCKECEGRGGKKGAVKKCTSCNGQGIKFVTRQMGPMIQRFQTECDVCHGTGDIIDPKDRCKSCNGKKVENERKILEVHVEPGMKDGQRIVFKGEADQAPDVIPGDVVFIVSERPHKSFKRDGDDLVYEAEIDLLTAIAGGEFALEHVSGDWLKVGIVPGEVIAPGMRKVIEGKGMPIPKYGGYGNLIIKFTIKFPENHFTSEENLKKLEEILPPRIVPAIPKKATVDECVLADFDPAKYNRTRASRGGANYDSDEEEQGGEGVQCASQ

The target of experiment [1] is FLAG-tagged Ssa1 (wild type) (budding yeast) (UniProt P10591). The experiment is described as follows: affinity purification with mass spectrometry; Ssa1 complexes (WT or T492A) immunoprecipitated from heat-shocked yeast; three biological replicates each; eluted from beads with 8 M urea; LC-MS/MS; data normalized on Ssa1.
Experiment [2] concerns the target FLAG-tagged Ssa1-T492A (budding yeast) (UniProt P10591). Described as above.

These are yes or no findings as the source states them, for the method shown. Binding seen in cells or lysates may run through a third protein. These calls come from enrichment with a bait or labelling near it, and not all partners need be listed.

On to Hsp60 (from UniProt P19882 26-572), for which the binding result in experiment [1] and in experiment [2] was “binds” throughout.
With Kar2 (from UniProt P16474 43-682), the binding entry in experiment [1] and in experiment [2] was “binds” throughout.
For the molecule “Poly-A-binding protein (Pab1) (from UniProt P04147 1-577)”, the binding result in experiment [1] and in experiment [2] was “binds” throughout.
Ssb1 (from UniProt P11484 1-613): the binding entry in experiment [1] and in experiment [2] was “binds” each time.
With Ssc1 (from UniProt P0CS90 24-654), the binding entry in experiment [1] and in experiment [2] was “binds” throughout.
For Ydj1 (from UniProt P25491 1-409), the binding result in experiment [1] was “binds”.

B1: Edc3 (protein, UniProt P39998 1-551)
chain: MSQFVGFGVQVELKDGKLIQGKIAKATSKGLTLNDVQFGDGGKSQAFKVRASRLKDLKVLTVASQSGKRKQQRQQQQQNDYNQNRGEHIDWQDDDVSKIKQQEDFDFQRNLGMFNKKDVFAQLKQNDDILPENRLQGHNRKQTQLQQNNYQNDELVIPDAKKDSWNKISSRNEQSTHQSQPQQDAQDDLVLEDDEHEYDVDDIDDPKYLPITQSLNITHLIHSATNSPSINDKTKGTVINDKDQVLAKLGQMIISQSRSNSTSLPAANKQTTIRSKNTKQNIPMATPVQLLEMESITSEFFSINSAGLLENFAVNASFFLKQKLGGRARLRLQNSNPEPLVVILASDSNRSGAKALALGRHLCQTGHIRVITLFTCSQNELQDSMVKKQTDIYKKCGGKIVNSVSSLESAMETLNSPVEIVIDAMQGYDCTLSDLAGTSEVIESRIKSMISWCNKQRGSTKVWSLDIPNGFDAGSGMPDIFFSDRIEATGIICSGWPLIAINNLIANLPSLEDAVLIDIGIPQGAYSQRTSLRKFQNCDLFVTDGSLLLDL
Take B1: the binding entry in experiment [1] and in experiment [2] was “binds” throughout.

B2: Sse2 (protein, UniProt P32590 1-693)
chain: MSTPFGLDLGNNNSVLAVARNRGIDVVVNEVSNRSTPSLVGFGPRNRYLGESGKTKQTSNVKNTVENLKRIIGLKFKDPEFDIENKFFTSKLVQLKNGKVGVEVEFGGKTHVFSATQLTAMFIDKVKHTVQEETKSSITDVCLAVPVWYSEEQRYNIADAARIAGLNPVRIVNDVTAAAVSYGVFKNDLPGPEEKPRIIGLVDIGHSTYTCSIMAFRKGEMKVLGTAYDKHFGGRDFDRAITEHFADQFKDKYKIDIRKNPKAYNRILIAAEKLKKVLSANTTAPFSVESVMDDIDVSSQLSREELEELVEPLLKRVTYPITNALAQAKLTVNDIDFVEIIGGTTRIPVLKKSISDVFGKPLSSTLNQDEAVAKGAAFICAIHSPTLRVRPFKFEDIDPYSVSYTWDKQVDDEDRLEVFPANSSYPSTKLITLHRTGDFSMKAVYTHPSKLPKGTSTTIAKWSFTGVKVPKDQDFIPVKVKLRCDPSGLHIIENAYTTEDITVQEPVPLPEDAPEDAEPQFKEVTKTIKKDVLGMTAKTFALNPVELNDLIEKENELRNQDKLVAETEDRKNALEEYIYTLRAKLDDEYSDFASDAEKEKLKNMLATTENWLYGDGDDSTKAKYIAKYEELASLGNIIRGRYLAKEEEKRQALRANQETSKMNDIAEKLAEQRRARAASDDSDDNNDENMDLD
Regarding B2, the binding entry in experiment [1] is on record as “binds”.

B3: Fes1 (protein, UniProt P38260 1-290)
chain: MEKLLQWSIANSQGDKEAMARAGQPDPKLLQQLFGGGGPDDPTLMKESMAVIMNPEVDLETKLVAFDNFEMLIENLDNANNIENLKLWEPLLDVLVQTKDEELRAAALSIIGTAVQNNLDSQNNFMKYDNGLRSLIEIASDKTKPLDVRTKAFYALSNLIRNHKDISEKFFKLNGLDCIAPVLSDNTAKPKLKMRAIALLTAYLSSVKIDENIISVLRKDGVIESTIECLSDESNLNIIDRVLSFLSHLISSGIKFNEQELHKLNEGYKHIEPLKDRLNEDDYLAVKYVL
With B3, the binding entry in experiment [1] was “binds”.

B4: Lhs1 (protein, UniProt P36016 21-881)
chain: AVLGVDYGQQNIKAIVVSPQAPLELVLTPEAKRKEISGLSIKRLPGYGKDDPNGIERIYGSAVGSLATRFPQNTLLHLKPLLGKSLEDETTVTLYSKQHPGLEMVSTNRSTIAFLVDNVEYPLEELVAMNVQEIANRANSLLKDRDARTEDFVNKMSFTIPDFFDQHQRKALLDASSITTGIEETYLVSEGMSVAVNFVLKQRQFPPGEQQHYIVYDMGSGSIKASMFSILQPEDTTQPVTIEFEGYGYNPHLGGAKFTMDIGSLIENKFLETHPAIRTDELHANPKALAKINQAAEKAKLILSANSEASINIESLINDIDFRTSITRQEFEEFIADSLLDIVKPINDAVTKQFGGYGTNLPEINGVILAGGSSRIPIVQDQLIKLVSEEKVLRNVNADESAVNGVVMRGIKLSNSFKTKPLNVVDRSVNTYSFKLSNESELYDVFTRGSAYPNKTSILTNTTDSIPNNFTIDLFENGKLFETITVNSGAIKNSYSSDKCSSGVAYNITFDLSSDRLFSIQEVNCICQSENDIGNSKQIKNKGSRLAFTSEDVEIKRLSPSERSRLHEHIKLLDKQDKERFQFQENLNVLESNLYDARNLLMDDEVMQNGPKSQVEELSEMVKVYLDWLEDASFDTDPEDIVSRIREIGILKKKIELYMDSAKEPLNSQQFKGMLEEGHKLLQAIETHKNTVEEFLSQFETEFADTIDNVREEFKKIKQPAYVSKALSTWEETLTSFKNSISEIEKFLAKNLFGEDLREHLFEIKLQFDMYRTKLEEKLRLIKSGDESRLNEIKKLHLRNFRLQKRKEEKLKRKLEQEKSRNNNETESTVINSADDKTTIVNDKTTESNPSSEEDILHDEL
Regarding B4, in experiment [1], the binding entry is listed as “binds”.

B5: Sgt2 (protein, UniProt Q12118 1-346)
chain: MSASKEEIAALIVNYFSSIVEKKEISEDGADSLNVAMDCISEAFGFEREAVSGILGKSEFKGQHLADILNSASRVPESNKKDDAENVEINIPEDDAETKAKAEDLKMQGNKAMANKDYELAINKYTEAIKVLPTNAIYYANRAAAHSSLKEYDQAVKDAESAISIDPSYFRGYSRLGFAKYAQGKPEEALEAYKKVLDIEGDNATEAMKRDYESAKKKVEQSLNLEKTVPEQSRDADVDASQGASAGGLPDLGSLLGGGLGGLMNNPQLMQAAQKMMSNPGAMQNIQKMMQDPSIRQMAEGFASGGGTPNLSDLMNNPALRNMAGNLFGGAGAQSTDETPDNENKQ
In the case of B5, the binding result in experiment [1] and in experiment [2] was “binds” in each case.

B6: Sti1 (protein, UniProt P15705 1-589)
chain: MSLTADEYKQQGNAAFTAKDYDKAIELFTKAIEVSETPNHVLYSNRSACYTSLKKFSDALNDANECVKINPSWSKGYNRLGAAHLGLGDLDEAESNYKKALELDASNKAAKEGLDQVHRTQQARQAQPDLGLTQLFADPNLIENLKKNPKTSEMMKDPQLVAKLIGYKQNPQAIGQDLFTDPRLMTIMATLMGVDLNMDDINQSNSMPKEPETSKSTEQKKDAEPQSDSTTSKENSSKAPQKEESKESEPMEVDEDDSKIEADKEKAEGNKFYKARQFDEAIEHYNKAWELHKDITYLNNRAAAEYEKGEYETAISTLNDAVEQGREMRADYKVISKSFARIGNAYHKLGDLKKTIEYYQKSLTEHRTADILTKLRNAEKELKKAEAEAYVNPEKAEEARLEGKEYFTKSDWPNAVKAYTEMIKRAPEDARGYSNRAAALAKLMSFPEAIADCNKAIEKDPNFVRAYIRKATAQIAVKEYASALETLDAARTKDAEVNNGSSAREIDQLYYKASQQRFQPGTSNETPEETYQRAMKDPEVAAIMQDPVMQSILQQAQQNPAALQEHMKNPEVFKKIQTLIAAGIIRTGR
For B6, the binding entry in experiment [1] and in experiment [2] was “binds” throughout.
